In PubChem BioAssay AID2517 (National Center for Advancing Translational Sciences (NCATS), 2010):
Where “and” joins values, the source holds several entries; their conditions need not be identical. Identical values can stand only once. In all, about 350,000 compounds went through this assay and about 1,200 (0.34%) were called active. The inconclusive results got no clear call from the source; some entries with a clear call stand among them for comparison. Calls follow the shape of the dose curve; as a rule, active = well fitted inhibition curve with a large enough effect; inconclusive = small, poorly fitted or top-dose-only effect; inactive = no such curve, though single readings can be large or run the other way. Potencies of inconclusive entries are doubtful fits and often do not repeat.

By UniProt entry, the sequences of proteins in these tests, tags left out.
UniProt P27695, whole entry, looked up: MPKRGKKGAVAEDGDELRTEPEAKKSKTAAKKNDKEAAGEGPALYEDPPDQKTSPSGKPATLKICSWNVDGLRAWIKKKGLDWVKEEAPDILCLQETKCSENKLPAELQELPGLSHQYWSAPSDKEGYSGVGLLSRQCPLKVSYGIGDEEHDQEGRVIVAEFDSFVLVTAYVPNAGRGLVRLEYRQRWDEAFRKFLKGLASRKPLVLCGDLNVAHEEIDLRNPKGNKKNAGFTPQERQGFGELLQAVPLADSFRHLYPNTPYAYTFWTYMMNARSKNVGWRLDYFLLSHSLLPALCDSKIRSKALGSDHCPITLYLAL

target: DNA repair nuclease/redox regulator APEX1 (Homo sapiens) (UniProt P27695); assay: qHTS Assay for Inhibitors of the Human Apurinic/apyrimidinic Endonuclease 1 (APE1); details: recombinant APE1, TAMRA/BHQ-2 abasic DNA cleavage fluorescence; activity change, negative = inhibition: at 65.8 µM (top of the series); also: nearly all actives have a fitted effect of over 55% in size;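 as to activity change, negative = inhibition: plate controls were vehicle for no effect and reference inhibitor for full effect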
How it was run: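 Incision of a quenched TAMRA/BHQ-2 THF abasic-site duplex (50 nM) by 0.75 nM APE1, after 15 min compound preincubation, measured as fluorescence increase over three 60 s reads. Values normalized to buffer, DMSO and NSC13755 control wells.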
Potency is read from the fitted curve at half-maximal effect.

SMILES | Potency | activity change, negative = inhibition
CCOC(=O)[C@H]1[C@H]2COc3ccc(Br)cc3[C@@H]2N2C(=O)c3cc(Br)ccc3NC(=O)[C@@]12C | inactive | –
CCC(c1nnnn1CCc1ccccc1)N1CCN(C(=O)c2ccco2)CC1 (stereo not given) | inconclusive: 44.7 µM [inhibitor, single point] | –
Cc1cc(C)n(/N=C/c2cc([N+](=O)[O-])ccc2O)c(=O)c1 | inconclusive: 1.78 µM [inhibitor, full curve] | –
CCCCNS(=O)(=O)c1ccc2nc(SCC(=O)Nc3sccc3C#N)[nH]c2c1 | inconclusive: 22.4 µM [inhibitor, single point] | –
Cc1ccc(OCCCN2C(=O)C(=O)c3cccc(C)c32)cc1 | inconclusive: 44.7 µM [inhibitor, single point] | –
CCCCNc1ccc(C(=O)Nc2cccc(C)n2)cc1[N+](=O)[O-] | inconclusive: 0.631 µM [inhibitor, full curve, poor fit] | –
CCCN(CCC)C(C(=O)Nc1cccc(OC)c1)c1ccccc1 (stereo not given) | inconclusive: 20 µM [inhibitor, partial curve, poor fit] | –
O=C(Nc1ccccc1)Nc1c(F)cccc1F | inactive | –
OCC1(Cc2ccccc2)CCN(C2CCN(c3ccc(F)c(F)c3)CC2)CC1 | inconclusive: 17.8 µM [inhibitor, partial curve] | –
Cc1ccc(S(=O)(=O)n2c([N+](=O)[O-])cnc2C)c(C)c1C | inconclusive: 3.16 µM [inhibitor, full curve, poor fit] | –
Cc1ccnn1CC(=O)N/N=C/c1cn[nH]c1-c1ccc(F)cc1 | inconclusive: 8.91 µM [inhibitor, single point] | –
Cc1ccc(S(=O)(=O)c2cc3c(=O)n4ccccc4nc3n(Cc3ccco3)c2=N)cc1C | inactive | –
CCOc1ccc(S(=O)(=O)n2cnc3cc(C)c(C)cc32)cc1 | inconclusive: 0.0014 µM [inhibitor, full curve, poor fit] | –
CS(=O)(=O)N1CCN(c2ccc(NC(=O)c3ccc([N+](=O)[O-])o3)cc2)CC1 | inconclusive: 31.6 µM [inhibitor, single point] | –
COCc1nnc(NC(=O)c2ccc(S(=O)(=O)N(C)c3ccccc3)cc2)o1 | inconclusive: 22.4 µM [inhibitor, partial curve, poor fit] | –
NC(=O)c1ccc(NC(=O)COC(=O)c2cc3c(s2)CCC3)cc1 | active: 2.99 µM | –
COC(=O)C1=C(C)N(Cc2ccccc2)C2=C3C(=O)CCCC3[C@@](O)(C(=O)OC)C(=O)N2C1c1ccccc1 (stereo not given in full) | – | inactive: 13.8% [at 12.4 µM] and inactive: -11.1% [at 12.4 µM]
CC1CCC2[C@](C)(CO)C(O)CC[C@]2(C)C12CCC(CO)(CCO)O2 (stereo not given in full) | inconclusive: 44.7 µM [inhibitor, partial curve, poor fit] | –
CN1CCc2c(sc3ncn4nc(-c5ccccc5O)nc4c23)C1 | inactive | –
Cc1cccc(N(CC(=O)NCCSCc2ccccc2)S(C)(=O)=O)c1C | inconclusive: 20 µM [inhibitor, partial curve, poor fit] | –

SMILES | Potency | activity change, negative = inhibition
CC(C)C(=O)Nc1ccc(Nc2ccccc2)cc1 | inactive | –
COc1ccc(S(=O)(=O)N2CCCCC2)cc1NC(=O)CN(C)C1CCCCC1 | inconclusive: 39.8 µM [inhibitor, single point] | –
Nc1ncnc2c1ncn2[C@H]1O[C@@H](CNS(=O)(=O)NC(=O)c2cccc(-c3noc(-c4ccccc4F)n3)c2)[C@H](O)[C@@H]1O | inconclusive: 9.47 µM [inhibitor, partial curve, poor fit] | –
CN(C1CCCCC1)S(=O)(=O)c1ccc2[nH]c(=O)oc2c1 | inconclusive: 0.178 µM [inhibitor, full curve] | –
O=C(CNC(=O)c1cccs1)N/N=C/c1ccc(O)cc1O | inactive | –
COc1cccc(CNC(=O)C2CCN(S(=O)(=O)c3ccc(-n4cnnn4)cc3)CC2)c1 | inactive | –
O=C(Cc1ccccc1[N+](=O)[O-])NCCSCc1c(F)cccc1Cl | inconclusive: 39.8 µM [inhibitor, single point] | –
CC(C)C[C@H](NC(=O)c1nc[nH]c1C(=O)NCCCCCNC(=O)OC(C)(C)C)C(=O)OCc1ccccc1 | inconclusive: 39.8 µM [inhibitor, single point] | –
Nc1ccccc1S(=O)(=O)O | inconclusive: 28.2 µM [inhibitor, partial curve, poor fit] | –
COc1cc2c(C(=O)c3ccccc3)c3c4c(cc(OC)c(OC)c4c2cc1OC)CCN3C | inconclusive: 14.1 µM [inhibitor, partial curve] | –
COC(=O)C1CCN(C(=O)COC(=O)c2cc(-c3ccccc3)nc3ccc(OC)cc23)CC1 | inconclusive: 21.2 µM [inhibitor, single point] | –
COC(=O)c1sc(S(=O)(=O)Nc2c(C)nn(C)c2C)c(C(=O)OC)c1C | inactive | –
CC(NC(=O)COC(=O)c1ccc([N+](=O)[O-])s1)c1ccccc1 (stereo not given) | inconclusive: 28.2 µM [inhibitor, single point] | –
Nc1ccc(S(=O)(=O)Nc2nccs2)cc1 | inconclusive: 0.562 µM [inhibitor, full curve, poor fit] | –
Cc1c(Cc2ccccc2)c(=O)oc2c(C)c(OCC(=O)NCC3CCC(C(=O)O)CC3)ccc12 (stereo not given) | inconclusive: 23.8 µM [inhibitor, single point] | –
COc1cc(OC)c2ccc(=O)oc2c1C(CC(=O)N1CCCC1)c1ccc2c(c1)OCO2 (stereo not given) | inconclusive: 31.6 µM [inhibitor, partial curve] and inconclusive: 25.1 µM [inhibitor, single point] | –
O=C(N/N=C/c1cc([N+](=O)[O-])ccc1O)c1ccc(COc2ccc3c(c2)CCC3)o1 | inactive | –
Cc1cc(SCC(=O)Nc2cccnc2Cl)nc2ccccc12 | inconclusive: 2.82 µM [inhibitor, partial curve, poor fit] | –
O=C(Cn1cncn1)NCc1ccccc1Br | inactive | –
CCOC(=O)/C=C1\SCC(=O)N1CC(=O)c1ccc[nH]1 | inconclusive: 44.7 µM [inhibitor, single point] | –
